These results are taken from patent publication US20050215548A1 (Cyclacel Limited, priority 2002, published 2005).

What all share (assay type): cell-based
One assay relates to AGS. Description: 72-h MTT cytotoxicity assay, AGS. As to conditions: Homo sapiens, Gastric adenocarcinoma, Table 2, read-out: Anti-proliferative activity, 72-h MTT IC50. How it is done: (§1) The fluorescence polarisation competitive HDM2 binding assay described in Example 3 was used. Furthermore, the anti-proliferative potency of the compounds against three human tumour cell lines with different genetic make-up was also determined. […] The cell lines used were as follows: AGS, gastric adenocarcinoma, wild-type p53; H1299, large cell lung carcinoma, p53 null, low HDM2; SJSA-1, primitive multipotential bone sarcoma, wild-type p53, overexpressed HDM2.
(§2) Representative bisarylsulfonamide compounds were tested on a panel of transformed and non-transformed human cell lines, using a standard 72-h MTT cytotoxicity assay [Haselsberger K et al, ibid].
(In general: Formazan colour is commonly taken as a measure of viable cells.)

The subject of another assay is H1299. Description: 72-h MTT cytotoxicity assay, H1299. The note with it: Homo sapiens, NCI-H1299, 72 h; H1299, Large cell lung carcinoma; Table 2; read-out: Anti-proliferative activity, 72-h MTT IC50. How it is done:
as §1, §2

In a further assay the test system is DU145. Description: 72-h MTT cytotoxicity assay, DU145. As to conditions: Homo sapiens, DU-145, 72 h; DU145, Prostate carcinoma; read-out: Anti-proliferative activity, 72-h MTT IC50. The protocol:
as §2

Another assay deals with HT29. Description: 72-h MTT cytotoxicity assay, HT29. As to conditions: Homo sapiens, HT-29, 72 h; HT29, Colon adenocarcinoma; read-out: Anti-proliferative activity, 72-h MTT IC50. How it is done:
as §2

In a further assay the test system is Lovo. Nature of the assay: 72-h MTT cytotoxicity assay, Lovo. The note with it: Homo sapiens, Colon adenocarcinoma, read-out: Anti-proliferative activity, 72-h MTT IC50. The protocol: as §2
Another assay relates to Nci-H460. Description: 72-h MTT cytotoxicity assay, Nci-H460. The note with it: Homo sapiens, Nci-H460, Large cell lung carcinoma, read-out: Anti-proliferative activity, 72-h MTT IC50. The protocol: as §2
For a further assay, the system named is SK-N-MC. Description: 72-h MTT cytotoxicity assay, SK-N-MC. As to conditions: Homo sapiens, Neuriepithelioma, read-out: Anti-proliferative activity, 72-h MTT IC50. The protocol: as §2
The test system of another assay is A549. Nature of the assay: 72-h MTT cytotoxicity assay, A549. As to conditions: Homo sapiens, A549, Lung carcinoma, read-out: Anti-proliferative activity, 72-h MTT IC50. The protocol: as §2
The next assay concerns HCT116. Description: 72-h MTT cytotoxicity assay, HCT116. The note with it: Homo sapiens, HCT-116, 72 h; HCT116, Colon carcinoma; read-out: Anti-proliferative activity, 72-h MTT IC50. How it is done: as §2
Another assay has as its system HeLa. Nature of the assay: 72-h MTT cytotoxicity assay, HeLa. The note with it: Homo sapiens, Cervical carcinoma, read-out: Anti-proliferative activity, 72-h MTT IC50. The protocol:
as §2

A further assay concerns MCF7. Description: 72-h MTT cytotoxicity assay, MCF7. As to conditions: Homo sapiens, MCF7, Breast adenocarcinoma, read-out: Anti-proliferative activity, 72-h MTT IC50. How it is done:
as §2

Another assay concerns Messa. Description: 72-h MTT cytotoxicity assay, Messa. The note with it: Homo sapiens, MES-SA, Uterus sarcoma, read-out: Anti-proliferative activity, 72-h MTT IC50. The protocol:
as §2

In another assay the test system is Messa-Dx5. Description: 72-h MTT cytotoxicity assay, Messa-Dx5. The note with it: Homo sapiens, MES-SA/Dx5, 72 h; Messa-Dx5, Uterus sarcoma; read-out: Anti-proliferative activity, 72-h MTT IC50. How it is done:
as §2

The subject of the next assay is Saos-2. Nature of the assay: 72-h MTT cytotoxicity assay, Saos-2. The note with it: Homo sapiens, Saos-2, Osteosracoma, read-out: Anti-proliferative activity, 72-h MTT IC50. How it is done: as §2
Another assay relates to NaCat. Description: 72-h MTT cytotoxicity assay, NaCat. The note with it: Keratinocyte, Human keratinocytes, read-out: Anti-proliferative activity, 72-h MTT IC50. How it is done: as §2
The subject of a further assay is U2OS. Nature of the assay: 72-h MTT cytotoxicity assay, U2OS. The note with it: Homo sapiens, Osteosracoma, read-out: Anti-proliferative activity, 72-h MTT IC50. The protocol: as §2
The subject of a further assay is SKUT-1. Description: 72-h MTT cytotoxicity assay, SKUT-1. The note with it: Homo sapiens, SK-UT-1, 72 h; SKUT-1, Uterus leiomyosarcoma; read-out: Anti-proliferative activity, 72-h MTT IC50. How it is done:
as §2

Another assay has as its system HS27. Nature of the assay: 72-h MTT cytotoxicity assay, HS27. As to conditions: Homo sapiens, HS27, Foreskin fibroblasts, read-out: Anti-proliferative activity, 72-h MTT IC50. How it is done:
as §2

A further assay relates to IMR90. Description: 72-h MTT cytotoxicity assay, IMR90. The note with it: Homo sapiens, IMR-90, 72 h; IMR90, Lung fibroblasts; read-out: Anti-proliferative activity, 72-h MTT IC50. The protocol: as §2
A further assay concerns WI38. Description: 72-h MTT cytotoxicity assay, WI38. As to conditions: Homo sapiens, WI-38, 72 h; WI38, Lung fibroblasts; read-out: Anti-proliferative activity, 72-h MTT IC50. The protocol: as §2
The subject of assay [1] is transformed human cell lines. Nature of the assay: 72-h MTT panel, average transformed. As to conditions: read-out: Anti-proliferative activity, 72-h MTT IC50, Average transformed. How it is done:
as §2
(§3) This differential selectivity further supports the notion that the bisarylsulfonamides modulate cellular HDM2 function. It is known that HDM2 amplification is particularly common in soft tissue sarcomas and osteosarcomas [Momand J et al, ibid; Bartel F, Meye A, Wurl P, Kappler M, Bache M, Lautenschlager C, Grunbaum U, Schmidt H, Taubert H; Int. J. Cancer 2001; 95: 168-175].

The subject of the next assay is sarcoma cell lines. Description: 72-h MTT panel, average sarcomas. As to conditions: Homo sapiens, read-out: Anti-proliferative activity, 72-h MTT IC50, Average sarcomas. The protocol: as §2, §3
Assay [2] deals with non-transformed human cell lines. Description: 72-h MTT panel, average non-transformed. As to conditions: read-out: Anti-proliferative activity, 72-h MTT IC50, Average non-transformed. How it is done: as §2, §3

By IC50 is commonly meant the concentration needed to halve the response being measured. Regarding `CC[C@H](CO)Nc1nc(NCc2ccccc2)c2ncn(C(C)C)c2n1` [Roscovitine, reference compound], the IC50 in the assay with AGS came to 10.7 µM; in the assay on H1299, 11.9 µM; in the assay with DU145 it was 8.5 µM; with HT29, 15.6 µM; in the assay on Lovo, 13.8 µM; with Nci-H460 it was 12.8 µM. For the same compound, the half-inhibitory concentration (IC50) came out at 7.1 µM with SK-N-MC; 9.2 µM in the assay on A549; 9.7 µM in the assay with HCT116; 16.1 µM in the assay on HeLa; 12.1 µM in the assay on MCF7; 9.9 µM in the assay with Messa. The IC50 in the assay on Messa-Dx5 worked out at 5.3 µM; with Saos-2 it was 17.4 µM; in the assay on NaCat it was 16.3 µM; with U2OS it was 16.4 µM; in the assay with SKUT-1, 10.5 µM; in the assay on HS27 it was 43.1 µM. The IC50 in the assay with IMR90 turned out to be 44.2 µM; in the assay with WI38, 34.5 µM; in assay [1], 12.3 ± 3.7 µM; in the assay on sarcoma cell lines, 13.8 ± 5.1 µM; in assay [2], 40.6 ± 5.3 µM.
